From PubChem BioAssay AID1487 (National Center for Advancing Translational Sciences (NCATS), 2009)
Several values for one entry are separate records, joined by “and”; a condition that tells them apart may be missing. Equal values may be shown once. This is one part of the list. Shown are side measurements of this screen, not its main read-out; they come without a call. Most of these compounds were active or inconclusive in the main read-out, so they are no random draw. Potencies come from curve fits of mixed quality, noted in brackets.

Experiment: qHTS Assay for Modulators of Lamin A Splicing
Details: HeLa LMNA splicing GFP/RFP minigene ratio, 48 h
Procedure, shortened: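 Read-out is the ratio of GFP to DsRed2 object intensity, acquired by 488 nm laser-scanning cytometry on HeLa lamin A-EGFP minigene reporter cells. Compound incubation 48 hrs at 37 °C in Opti-MEM with 2% FBS; DMSO 0.5% final.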

[1] = measured here: GFP splicing reporter channel
[2] = measured here: RFP viability control channel

Structure (SMILES)	AC50 [1]	AC50 [2]
OC(COc1ccc2c(c1)OCO2)CN1CCN(c2ccc(F)cc2)CC1 (stereo not drawn)	0.02 µM [falling, full curve, poor fit]	
Cn1c2c(c(=O)n(C)c1=O)C(C(F)(F)F)(C(F)(F)F)N=C(CCC1CCCCC1)N2		12.6 µM [rising, partial curve, poor fit]
O=C(N/N=C/c1cn(-c2ccccc2)nc1-c1cccs1)c1ccccc1F		35.5 µM [rising, single point]
COc1ccccc1C(=O)NCC(=O)N/N=C/c1cc(Br)ccc1OCc1ccccc1		11.2 µM [rising, partial curve]
Cc1cccn2c(=O)cc(COc3cccc(NC(=O)c4cccc(Cl)c4)c3)nc12	1.26 µM [rising, full curve, poor fit]	3.16 µM [rising, single point]
Cc1c(NC(=O)c2ccc(COc3ccc4ccccc4c3)o2)c(=O)n(-c2ccccc2)n1C	10 µM [rising, partial curve]	14.1 µM [rising, partial curve]
CCn1c(=O)n(CC)c2cc(N3CCCC3)c(NC(=O)Nc3cc(C)cc(C)c3)cc21	20 µM [falling, single point]	22.4 µM [falling, single point]
O=[N+]([O-])c1ccc(C2Oc3ccccc3C3CC(c4ccccc4)=NN32)s1 (stereo not drawn)		0.891 µM [rising, partial curve]
CC(Nc1nc(N2CCCCC2)nc2ccccc12)c1ccccc1 (stereo not drawn)	20 µM [rising, single point]	22.4 µM [rising, single point]
O=C(COC(=O)c1ccc(O)cc1)Nc1ccccc1-c1ccccc1		15.8 µM [rising, single point]
Cc1ccc2nc(C)c3c(c2c1)OC(C(C)(Cl)Br)C3 (stereo not drawn)	14.1 µM [falling, partial curve, poor fit]	
CN1C(=O)/C(=C\c2cc(N=Nc3ccccc3)ccc2O)SC1=S	10 µM [falling, partial curve]	11.2 µM [falling, partial curve]
CCCn1c(NC(=S)Nc2ccccc2)nc2ccccc21		14.1 µM [rising, partial curve, poor fit]
O=[N+]([O-])c1c(NCCCO)cc(N2CCN(Cc3ccc4c(c3)OCO4)CC2)c2nonc12	20 µM [rising, single point]	35.5 µM [rising, single point]
CC(=O)c1ccc(NC(=O)COC(=O)CCC(=O)c2cccs2)cc1		0.794 µM [rising, full curve]
COc1cccc2sc(Nc3nc4ccc(NC(C)=O)cc4s3)nc12	6.31 µM [rising, partial curve]	12.6 µM [rising, partial curve]
CCn1cc(C(=O)Nc2ccc(C)cc2C)c(=O)c2ccc(C)nc21	5.62 µM [rising, partial curve, poor fit]	

Reformatted: two of the compounds above
Structure (SMILES) | AC50 [1] | AC50 [2]
CCCn1c(NC(=S)Nc2ccccc2)nc2ccccc21 |  | 14.1 µM [rising, partial curve, poor fit]
O=[N+]([O-])c1c(NCCCO)cc(N2CCN(Cc3ccc4c(c3)OCO4)CC2)c2nonc12 | 20 µM [rising, single point] | 35.5 µM [rising, single point]

Following part:

Structure (SMILES)	AC50 [1]	AC50 [2]
C[C@H](NC(=O)OC(C)(C)C)c1nnc(SCC(=O)c2ccc(Cl)cc2)o1	14.1 µM [rising, single point]	17.8 µM [rising, single point]
Cc1nc2c(C(=O)NCCc3ccc(Cl)cc3)cnn2c(C)c1Cc1ccc(F)cc1	11.2 µM [falling, partial curve, poor fit]	25.1 µM [falling, partial curve]
COc1ccccc1-c1c(C(F)(F)F)oc2cc(OS(C)(=O)=O)ccc2c1=O	11.2 µM [rising, single point]	11.2 µM [rising, partial curve]
Cc1nnc(NC(=O)Nc2cccc(Cl)c2)s1		20 µM [rising, single point]
CC/C(=N\NC(=S)Nc1cc(C)ccc1C)c1ccc(OC(F)F)cc1		20 µM [rising, partial curve]
O=C(NC(=S)Nc1c(Cl)ccc2nsnc12)c1ccco1	0.0355 µM [rising, full curve, poor fit]	
CC(=O)c1ccc(-n2nnnc2SCC(=O)N2CCc3ccccc3C2)cc1		17.8 µM [rising, single point]
COc1cc2c(cc1OC)CN(c1nc(CN3CCOCC3)nc3sc4c(c13)CCCC4)CC2	11.2 µM [falling, single point]	
NNC(=O)COc1ccccc1[N+](=O)[O-]	12.6 µM [falling, partial curve, poor fit]	
Cc1cccc(NC(=O)Cn2c(=O)c3cccn3c3ccccc32)c1C		22.4 µM [rising, partial curve, poor fit]
CCSc1nnc(NC(=O)C2Cc3ccccc3CN2S(=O)(=O)CC)s1 (stereo not drawn)		35.5 µM [rising, single point]
COc1cc(NS(=O)(=O)c2cc(Br)cc3c2N(C(=O)C2CC2)CC3)cc(OC)c1	7.94 µM [falling, partial curve]	5.62 µM [falling, partial curve, poor fit]
CN(C)c1nc(N(C)C)nc(N(C)C)n1	14.1 µM [falling, single point] and 4.47 nM [falling, full curve, poor fit]	0.794 µM [falling, full curve]
CCC(=O)Nc1nonc1-c1nc2ccccc2n1CCC(C)C	35.5 µM [rising, single point]	35.5 µM [rising, single point]
Cn1c(=O)cc(SCC(=O)N2CCN(Cc3ccc4c(c3)OCO4)CC2)c2ccccc21		12.6 µM [rising, single point]
O=[N+]([O-])c1ccccc1S(=O)(=O)N1CCc2ccccc2C1		0.02 µM [falling, full curve, poor fit]
COc1cccc(C(=O)CN2C3=NCCCN3c3ccccc32)c1	11.2 µM [rising, partial curve, poor fit]	11.2 µM [rising, partial curve]
